Several values for one entry are separate records, joined by “and”; a condition that tells them apart may be missing. Identical values can stand only once. This is one part of the list. This data set is noisy: repeats of one test often differ as much as different tests do.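 HEK293T cells were given each compound shortly before transfection with a reporter in which red mCherry is followed by the SARS-CoV-2 frameshift element and then GFP in the −1 frame, so GFP appears only after frameshifting.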
Tested on: SARS-CoV-2 -1 PRF reporter mCherry-FSE-GFP(-1)
Experiment: mCherry (red) intensity as percent of control; higher = higher upstream reporter expression
Conditions: 10 µM; 24 h; HEK293T

**Q.** How did the mCherry turn out when `O=C(Nc1cc(Cl)cc(Cl)c1O)c1c(O)c(Cl)cc(Cl)c1Cl` [oxyclozanide] was run?
**A.** 116%

**Q.** Which mCherry does the source give for `Cc1ncc(C[n+]2csc(CCO)c2C)c(N)n1` here?
**A.** 94.1%

**Q.** For `Cc1cccc(C)c1NC1=NCCCS1` [xylazine], which mCherry is on record?
**A.** 85.4% and 88.2%

**Q.** `C[C@]12CC[C@@H]3c4ccc(O)cc4CC[C@H]3[C@@H]1C[C@@H](O)[C@@H]2O` [Estriol] was tested. Which mCherry did it give?
**A.** 68.5%

**Q.** For `CC(N)C(O)c1ccccc1` (stereo not drawn) [Phenylpropanolamine], which mCherry is on record?
**A.** 95%

**Q.** Which mCherry does the source give for `CCCC(=O)Nc1ncnc2c1ncn2[C@@H]1O[C@@H]2COP(=O)(O)O[C@H]2[C@H]1OC(=O)CCC` here?
**A.** 112%

**Q.** For `CCCCC(CC)COC(=O)C=Cc1ccc(OC)cc1` (stereo not drawn) [octinoxate], which mCherry is on record?
**A.** 77.5%

**Q.** Which mCherry does the source give for `CC(C)NCC(O)COc1cccc2ccccc12` (stereo not drawn) [propranolol] here?
**A.** 84.6%

**Q.** With `CC(C)[C@@]1(NC(=O)[C@@H]2C[C@@H]3c4cccc5[nH]cc(c45)C[C@H]3N(C)C2)O[C@@]2(O)[C@@H]3CCCN3C(=O)[C@H](Cc3ccccc3)N2C1=O` [Dihydroergocristine] as the compound, how does the mCherry read?
**A.** 30.2%

**Q.** How did the mCherry turn out when `COc1ccc2c3c1O[C@H]1C(=O)CC[C@H]4[C@@H](C2)N(C)CC[C@]314` [hydrocodone] was run?
**A.** 89.7%

**Q.** For `CNC(C)C(O)c1ccccc1` (stereo not drawn) [racephedrine], which mCherry is on record?
**A.** 116%

**Q.** Which mCherry does the source give for `C[C@]12C/C(=C/O)C(=O)C[C@@H]1CC[C@@H]1[C@@H]2CC[C@@]2(C)[C@H]1CC[C@]2(C)O` [oxymetholone] here?
**A.** 84%

**Q.** How did the mCherry turn out when `CC(C)(C)CC(C)(C)c1ccc(OCCOCC[N+](C)(C)Cc2ccccc2)cc1` [benzethonium chloride] was run?
**A.** 27.7%

**Q.** For `NNc1nncc2ccccc12` [hydralazine], which mCherry is on record?
**A.** 104%

**Q.** With `Nc1ccc2cc3ccc(N)cc3nc2c1` as the compound, how does the mCherry read?
**A.** 23.1%

**Q.** How did the mCherry turn out when `COc1ccc2c3c1O[C@H]1[C@@H](O)C=C[C@H]4[C@@H](C2)N(C)CC[C@@]341` [Codeine] was run?
**A.** 101%

**Q.** `C=C(CC)C(=O)c1ccc(OCC(=O)O)c(Cl)c1Cl` [etacrynic acid] was tested. Which mCherry did it give?
**A.** 117% and 101%

**Q.** With `CCOP(=S)(OCC)Oc1ccc2c(C)c(Cl)c(=O)oc2c1` [coumafos] as the compound, how does the mCherry read?
**A.** 112%

**Q.** How did the mCherry turn out when `CC(=O)Oc1c(C)c(C)c2c(c1C)CCC(C)(CCC[C@H](C)CCC[C@H](C)CCCC(C)C)O2` (stereo partly drawn) was run?
**A.** 100%

**Q.** For `CN[C@@H](C)[C@H](O)c1ccccc1` [Ephedra], which mCherry is on record?
**A.** 92%

**Q.** Which mCherry does the source give for `CN1CCN(c2c(F)cc3c(=O)c(C(=O)O)cn(CCF)c3c2F)CC1` [fleroxacin] here?
**A.** 59.6%

**Q.** With `C[C@H](N)[C@H](O)c1ccccc1` as the compound, how does the mCherry read?
**A.** 90% and 105%

**Q.** `COc1ccc2c(c1)[nH]c1c(C)nccc12` [Harmine] was tested. Which mCherry did it give?
**A.** 49.7%

**Q.** `CNC(=O)Oc1cccc2ccccc12` [carbaril] was tested. Which mCherry did it give?
**A.** 109%

**Q.** `C[C@]12CC[C@@H]3c4ccc(O)cc4CC[C@H]3[C@@H]1C[C@H](O)[C@@H]2O` was tested. Which mCherry did it give?
**A.** 109%

**Q.** `CC(C(=O)O)c1cccc(C(=O)c2ccccc2)c1` (stereo not drawn) [ketoprofen] was tested. Which mCherry did it give?
**A.** 88% and 94.8%

**Q.** `CN1C(C(=O)Nc2ccccn2)=C(O)c2sccc2S1(=O)=O` [Tenoxicam] was tested. Which mCherry did it give?
**A.** 111% and 86.6%

**Q.** For `COc1cc2nc(N3CCN(C(=O)c4ccco4)CC3)nc(N)c2cc1OC`, which mCherry is on record?
**A.** 90.4%

Source: the supplement of paper PMC8256030
